Data on one molecule can be found in PMC6925134.

Results are given in words; binding and its absence hold for the method and conditions named. In cells and extracts the contact can be indirect. For part of these data: A result given as binding can be weak or reduced; the word gives no strength.

Common to all, as to assay: co-IP; RNF208 with head, rod and tail domains of Vimentin (Supplementary Fig. 7c); cells and antibodies not told
Assay [1] deals with head domain of Vimentin (human).
Assay [2] has as its target rod domain of Vimentin (human).
In assay [3] the target is tail domain of Vimentin (human).

B1: RNF208 (as used in the mapping of the Vimentin domains) (protein, UniProt Q9H0X6 1-261)
chain: MPSDPGPEAGSGWPGLLMSCLKGPHVILKMEAMKIVHPEKFPELPAAPCFPPAPRPTPTLAPKRAWPSDTEIIVNQACGGDMPALEGAPHTPPLPRRPRKGSSELGFPRVAPEDEVIVNQYVIRPGPSASAASSAAAGEPLECPTCGHSYNVTQRRPRVLSCLHSVCEQCLQILYESCPKYKFISCPTCRRETVLFTDYGLAALAVNTSILSRLPPEALTAPSGGQWGAEPEGSCYQTFRQYCGAACTCHVRNPLSACSIM
B1: the figures for the binding entry in assay [1], in assay [2] and in assay [3] were “binds”, “no binding” and “no binding”, respectively.
